These are yes or no findings as the source states them, for the method shown. In cells and extracts the contact can be indirect. Some entries that bind do so weakly or less than the wild type. Sequences can lack the tags named with a protein.
T1: Flag-tagged RIG-I 2CARD domain (human, 1-284 amino acids) (human) (UniProt O95786)
T1 sequence: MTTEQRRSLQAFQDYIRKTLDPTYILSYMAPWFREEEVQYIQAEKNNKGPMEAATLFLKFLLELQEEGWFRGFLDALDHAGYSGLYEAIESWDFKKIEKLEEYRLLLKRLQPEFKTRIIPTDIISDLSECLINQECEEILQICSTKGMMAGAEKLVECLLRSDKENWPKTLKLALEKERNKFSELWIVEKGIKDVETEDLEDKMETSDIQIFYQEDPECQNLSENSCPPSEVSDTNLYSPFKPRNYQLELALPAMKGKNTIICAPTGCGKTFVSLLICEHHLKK

Amino acid sequences for entries named in this document (tags omitted).
UniProt Q14258: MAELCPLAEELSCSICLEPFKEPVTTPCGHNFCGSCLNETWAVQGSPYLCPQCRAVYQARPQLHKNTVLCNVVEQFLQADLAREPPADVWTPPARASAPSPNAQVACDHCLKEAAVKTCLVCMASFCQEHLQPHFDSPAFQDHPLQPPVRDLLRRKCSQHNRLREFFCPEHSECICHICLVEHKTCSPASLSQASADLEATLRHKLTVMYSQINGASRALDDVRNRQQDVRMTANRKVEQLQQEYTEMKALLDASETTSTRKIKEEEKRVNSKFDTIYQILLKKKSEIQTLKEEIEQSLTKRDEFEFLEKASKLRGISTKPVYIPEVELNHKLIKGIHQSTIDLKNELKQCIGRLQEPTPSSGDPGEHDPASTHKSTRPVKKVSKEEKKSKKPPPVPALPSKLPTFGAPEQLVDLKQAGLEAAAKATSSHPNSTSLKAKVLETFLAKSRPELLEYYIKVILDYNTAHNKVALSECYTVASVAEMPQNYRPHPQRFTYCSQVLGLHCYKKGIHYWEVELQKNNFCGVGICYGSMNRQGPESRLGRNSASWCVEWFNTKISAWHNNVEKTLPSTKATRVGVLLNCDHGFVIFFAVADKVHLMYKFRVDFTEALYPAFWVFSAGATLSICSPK


Target: T1, Flag-tagged RIG-I 2CARD domain (human, 1-284 amino acids) (human)
Experiment: pull-down; biotinylated cFP mixed with lysate of non-stimulated HEK293T cells transiently expressing CARD-Flag, 2 h at 4 °C, captured on streptavidin magnetic beads, washed three times with cell lysis buffer (50 mM Tris-HCl pH 7.5, 150 mM NaCl, 1 mM EDTA, 1% Nonidet P-40); immunoblot of the pulled-down proteins

| Molecule | binding |
| --- | --- |
| TRIM25 (from UniProt Q14258 1-630) | binds |
| Riplet (protein, UniProt Q8IUD6 1-432) MAGLGLGSAVPVWLAEDDLGCIICQGLLDWPATLPCGHSFCRHCLEALWGARDARRWACPTCRQGAAQQPHLRKNTLLQDLADKYRRAAREIQAGSDPAHCPCPGSSSLSSAAARPRRRPELQRVAVEKSITEVAQELTELVEHLVDIVRSLQNQRPLSESGPDNELSILGKAFSSGVDLSMASPKLVTSDTAAGKIRDILHDLEEIQEKLQESVTWKEAPEAQMQGELLEAPSSSSCPLPDQSHPALRRASRFAQWAIHPTFNLKSLSCSLEVSKDSRTVTVSHRPQPYRWSCERFSTSQVLCSQALSSGKHYWEVDTRNCSHWAVGVASWEMSRDQVLGRTMDSCCVEWKGTSQLSAWHMVKETVLGSDRPGVVGIWLNLEEGKLAFYSVDNQEKLLYECTISASSPLYPAFWLYGLHPGNYLIIKQVKV | no binding |

— PMC5913291
